Test results as given in the supplement of paper PMC10849652.
This is one part of the list.

Sequences of proteins named here, by UniProt entry; tags and fusion partners are left off. A change or cut given only in a name is not applied to a line headed by its entry.
UniProt Q6N075: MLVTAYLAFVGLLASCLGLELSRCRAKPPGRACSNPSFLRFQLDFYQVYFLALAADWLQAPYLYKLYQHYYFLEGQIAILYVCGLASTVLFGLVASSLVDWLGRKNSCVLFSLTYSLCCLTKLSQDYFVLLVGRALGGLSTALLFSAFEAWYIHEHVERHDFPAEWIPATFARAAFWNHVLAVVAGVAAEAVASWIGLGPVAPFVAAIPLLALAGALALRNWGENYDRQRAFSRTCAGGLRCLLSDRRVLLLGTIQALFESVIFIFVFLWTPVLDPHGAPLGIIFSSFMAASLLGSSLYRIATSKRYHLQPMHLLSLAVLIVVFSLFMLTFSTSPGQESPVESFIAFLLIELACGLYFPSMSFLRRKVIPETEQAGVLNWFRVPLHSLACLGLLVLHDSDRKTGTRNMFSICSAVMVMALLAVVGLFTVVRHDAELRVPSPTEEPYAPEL
UniProt Q96N66: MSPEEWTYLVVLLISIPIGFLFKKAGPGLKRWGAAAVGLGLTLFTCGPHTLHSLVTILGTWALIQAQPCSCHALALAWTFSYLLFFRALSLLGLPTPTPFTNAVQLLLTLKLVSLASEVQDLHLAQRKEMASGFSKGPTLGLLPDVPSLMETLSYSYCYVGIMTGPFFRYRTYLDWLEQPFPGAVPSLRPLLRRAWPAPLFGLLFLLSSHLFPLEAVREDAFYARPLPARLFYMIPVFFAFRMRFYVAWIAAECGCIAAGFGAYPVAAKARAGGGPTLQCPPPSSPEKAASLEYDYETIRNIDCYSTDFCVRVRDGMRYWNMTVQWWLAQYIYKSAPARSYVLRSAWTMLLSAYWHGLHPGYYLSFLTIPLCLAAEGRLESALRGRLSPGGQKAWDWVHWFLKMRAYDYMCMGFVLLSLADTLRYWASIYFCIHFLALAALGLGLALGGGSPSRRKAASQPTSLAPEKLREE
UniProt Q10469: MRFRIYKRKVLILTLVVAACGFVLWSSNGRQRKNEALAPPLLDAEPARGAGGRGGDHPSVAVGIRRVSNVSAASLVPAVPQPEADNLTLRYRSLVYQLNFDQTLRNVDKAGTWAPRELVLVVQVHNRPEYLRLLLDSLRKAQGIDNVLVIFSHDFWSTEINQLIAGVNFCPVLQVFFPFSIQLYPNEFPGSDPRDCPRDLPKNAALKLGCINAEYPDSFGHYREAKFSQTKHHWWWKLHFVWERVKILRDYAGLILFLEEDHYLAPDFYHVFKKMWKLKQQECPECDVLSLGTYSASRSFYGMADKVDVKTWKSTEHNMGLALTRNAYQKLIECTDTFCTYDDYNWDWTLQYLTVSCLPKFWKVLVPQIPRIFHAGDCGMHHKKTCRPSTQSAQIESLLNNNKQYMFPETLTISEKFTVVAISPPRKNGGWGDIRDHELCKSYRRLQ
UniProt O75448: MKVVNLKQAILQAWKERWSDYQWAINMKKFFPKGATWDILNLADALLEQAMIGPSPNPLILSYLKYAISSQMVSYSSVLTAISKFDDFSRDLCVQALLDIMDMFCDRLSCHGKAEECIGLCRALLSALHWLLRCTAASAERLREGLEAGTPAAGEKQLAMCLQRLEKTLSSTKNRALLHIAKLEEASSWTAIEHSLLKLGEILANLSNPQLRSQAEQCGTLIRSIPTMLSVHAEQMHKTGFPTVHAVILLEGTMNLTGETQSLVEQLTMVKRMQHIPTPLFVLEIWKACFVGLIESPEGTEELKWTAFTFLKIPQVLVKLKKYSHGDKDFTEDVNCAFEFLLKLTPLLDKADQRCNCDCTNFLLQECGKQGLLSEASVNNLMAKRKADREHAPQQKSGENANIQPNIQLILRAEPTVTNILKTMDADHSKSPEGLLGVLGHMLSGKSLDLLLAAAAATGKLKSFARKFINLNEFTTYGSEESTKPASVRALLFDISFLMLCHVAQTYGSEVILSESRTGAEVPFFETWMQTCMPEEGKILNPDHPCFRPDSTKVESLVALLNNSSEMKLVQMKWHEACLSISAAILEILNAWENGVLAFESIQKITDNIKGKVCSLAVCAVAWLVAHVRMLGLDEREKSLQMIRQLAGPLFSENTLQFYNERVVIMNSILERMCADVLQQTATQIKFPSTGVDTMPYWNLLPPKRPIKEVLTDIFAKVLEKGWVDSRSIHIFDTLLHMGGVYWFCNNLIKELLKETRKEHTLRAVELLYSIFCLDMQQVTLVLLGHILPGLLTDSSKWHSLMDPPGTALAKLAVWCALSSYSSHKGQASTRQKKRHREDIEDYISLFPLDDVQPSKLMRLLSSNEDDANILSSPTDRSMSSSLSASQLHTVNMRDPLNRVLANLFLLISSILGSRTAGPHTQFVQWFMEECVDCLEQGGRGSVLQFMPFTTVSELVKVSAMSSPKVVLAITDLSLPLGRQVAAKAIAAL
UniProt Q86U44, whole entry, looked up: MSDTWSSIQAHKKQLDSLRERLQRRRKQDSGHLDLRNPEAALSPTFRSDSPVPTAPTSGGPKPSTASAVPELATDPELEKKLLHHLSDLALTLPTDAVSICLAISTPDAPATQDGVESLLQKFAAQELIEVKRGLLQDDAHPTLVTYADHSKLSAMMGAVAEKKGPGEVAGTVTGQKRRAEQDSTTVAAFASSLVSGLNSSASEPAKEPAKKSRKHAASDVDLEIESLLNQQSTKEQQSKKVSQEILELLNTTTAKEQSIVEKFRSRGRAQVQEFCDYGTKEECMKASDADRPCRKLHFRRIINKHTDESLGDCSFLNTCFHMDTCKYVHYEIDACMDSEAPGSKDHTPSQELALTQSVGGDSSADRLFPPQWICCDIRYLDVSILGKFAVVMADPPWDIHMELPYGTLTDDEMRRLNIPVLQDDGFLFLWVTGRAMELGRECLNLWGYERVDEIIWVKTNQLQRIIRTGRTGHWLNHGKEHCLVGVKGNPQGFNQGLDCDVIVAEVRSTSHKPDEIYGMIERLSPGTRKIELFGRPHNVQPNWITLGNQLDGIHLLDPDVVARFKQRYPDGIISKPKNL
UniProt P51608, whole entry, looked up: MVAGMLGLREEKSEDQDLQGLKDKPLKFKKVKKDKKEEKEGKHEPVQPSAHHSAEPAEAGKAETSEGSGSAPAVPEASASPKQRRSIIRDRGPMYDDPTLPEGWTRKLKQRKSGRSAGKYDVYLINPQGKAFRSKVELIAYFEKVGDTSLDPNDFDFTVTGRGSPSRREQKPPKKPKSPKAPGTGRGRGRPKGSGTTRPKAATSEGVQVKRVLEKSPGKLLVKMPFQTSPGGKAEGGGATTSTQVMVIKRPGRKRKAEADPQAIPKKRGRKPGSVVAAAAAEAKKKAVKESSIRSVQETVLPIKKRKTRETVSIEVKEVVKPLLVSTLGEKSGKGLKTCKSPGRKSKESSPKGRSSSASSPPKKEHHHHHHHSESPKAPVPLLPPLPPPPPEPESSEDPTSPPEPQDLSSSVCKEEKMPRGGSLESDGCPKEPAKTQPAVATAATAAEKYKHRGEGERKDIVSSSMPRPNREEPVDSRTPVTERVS
UniProt P31153, whole entry, looked up: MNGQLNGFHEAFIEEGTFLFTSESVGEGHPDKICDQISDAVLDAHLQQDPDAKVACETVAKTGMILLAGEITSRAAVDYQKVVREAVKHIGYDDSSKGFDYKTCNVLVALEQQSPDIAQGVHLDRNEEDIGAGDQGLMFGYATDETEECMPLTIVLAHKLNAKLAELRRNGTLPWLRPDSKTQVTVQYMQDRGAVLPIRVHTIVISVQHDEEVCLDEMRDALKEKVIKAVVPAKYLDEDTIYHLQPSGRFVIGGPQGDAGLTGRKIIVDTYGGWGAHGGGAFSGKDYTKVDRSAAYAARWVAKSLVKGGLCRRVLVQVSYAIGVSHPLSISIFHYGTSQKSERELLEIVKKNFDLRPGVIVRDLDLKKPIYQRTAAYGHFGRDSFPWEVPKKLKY
UniProt Q9BUE0: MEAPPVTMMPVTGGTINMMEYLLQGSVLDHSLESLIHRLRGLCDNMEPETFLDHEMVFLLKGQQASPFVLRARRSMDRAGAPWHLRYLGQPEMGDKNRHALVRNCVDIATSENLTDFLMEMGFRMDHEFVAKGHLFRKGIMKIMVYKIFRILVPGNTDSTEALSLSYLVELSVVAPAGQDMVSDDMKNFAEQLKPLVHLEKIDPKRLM
UniProt Q14696: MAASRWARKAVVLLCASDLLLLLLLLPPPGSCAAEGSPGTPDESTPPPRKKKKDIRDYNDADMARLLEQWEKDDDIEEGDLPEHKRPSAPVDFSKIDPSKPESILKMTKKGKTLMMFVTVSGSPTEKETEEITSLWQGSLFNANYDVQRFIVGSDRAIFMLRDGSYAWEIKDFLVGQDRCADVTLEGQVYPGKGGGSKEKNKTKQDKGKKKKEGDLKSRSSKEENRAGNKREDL
UniProt P25205: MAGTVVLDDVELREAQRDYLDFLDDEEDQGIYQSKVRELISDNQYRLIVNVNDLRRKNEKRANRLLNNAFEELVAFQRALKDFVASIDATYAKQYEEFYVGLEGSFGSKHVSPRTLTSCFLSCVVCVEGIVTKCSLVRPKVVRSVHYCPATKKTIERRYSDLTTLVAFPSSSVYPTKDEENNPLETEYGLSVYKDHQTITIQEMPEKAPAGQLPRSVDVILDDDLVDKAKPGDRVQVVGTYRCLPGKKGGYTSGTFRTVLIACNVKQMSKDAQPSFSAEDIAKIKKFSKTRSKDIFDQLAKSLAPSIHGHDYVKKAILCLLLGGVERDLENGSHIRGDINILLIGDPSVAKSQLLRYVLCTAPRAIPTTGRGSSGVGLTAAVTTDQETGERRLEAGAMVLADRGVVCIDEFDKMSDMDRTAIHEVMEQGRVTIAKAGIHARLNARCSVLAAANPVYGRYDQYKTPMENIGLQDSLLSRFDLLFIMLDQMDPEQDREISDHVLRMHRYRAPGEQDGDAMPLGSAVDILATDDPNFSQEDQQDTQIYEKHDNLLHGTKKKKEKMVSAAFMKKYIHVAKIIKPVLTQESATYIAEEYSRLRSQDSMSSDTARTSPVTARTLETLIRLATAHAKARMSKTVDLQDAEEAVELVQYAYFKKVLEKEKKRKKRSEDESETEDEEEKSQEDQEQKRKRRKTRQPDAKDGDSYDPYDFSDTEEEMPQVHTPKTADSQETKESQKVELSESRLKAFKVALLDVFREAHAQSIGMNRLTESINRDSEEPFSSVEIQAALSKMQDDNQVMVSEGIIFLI
UniProt Q8IWA4: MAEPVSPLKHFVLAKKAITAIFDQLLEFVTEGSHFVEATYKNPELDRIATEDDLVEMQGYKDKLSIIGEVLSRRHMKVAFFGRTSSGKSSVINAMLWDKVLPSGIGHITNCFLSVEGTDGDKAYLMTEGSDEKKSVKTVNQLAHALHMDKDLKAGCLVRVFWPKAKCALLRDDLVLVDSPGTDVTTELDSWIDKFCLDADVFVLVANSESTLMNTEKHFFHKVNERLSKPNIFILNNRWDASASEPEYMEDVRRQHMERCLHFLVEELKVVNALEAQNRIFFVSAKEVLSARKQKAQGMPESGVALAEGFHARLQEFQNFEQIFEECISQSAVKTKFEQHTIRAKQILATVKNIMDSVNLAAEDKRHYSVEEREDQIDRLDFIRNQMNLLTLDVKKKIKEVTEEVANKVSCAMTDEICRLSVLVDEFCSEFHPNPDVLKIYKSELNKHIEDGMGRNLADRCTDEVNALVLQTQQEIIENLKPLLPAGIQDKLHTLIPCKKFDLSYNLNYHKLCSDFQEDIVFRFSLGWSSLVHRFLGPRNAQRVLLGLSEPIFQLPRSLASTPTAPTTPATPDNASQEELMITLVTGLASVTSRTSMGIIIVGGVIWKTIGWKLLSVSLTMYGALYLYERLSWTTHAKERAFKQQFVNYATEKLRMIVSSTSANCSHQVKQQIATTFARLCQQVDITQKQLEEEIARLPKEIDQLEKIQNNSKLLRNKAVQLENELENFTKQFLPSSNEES
UniProt Q9NRN9: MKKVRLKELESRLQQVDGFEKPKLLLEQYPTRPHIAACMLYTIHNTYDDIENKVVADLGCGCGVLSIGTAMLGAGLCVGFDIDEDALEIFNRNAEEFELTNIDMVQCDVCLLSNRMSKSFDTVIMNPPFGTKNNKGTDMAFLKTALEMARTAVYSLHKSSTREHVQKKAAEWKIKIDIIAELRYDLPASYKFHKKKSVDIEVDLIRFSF
UniProt Q14728: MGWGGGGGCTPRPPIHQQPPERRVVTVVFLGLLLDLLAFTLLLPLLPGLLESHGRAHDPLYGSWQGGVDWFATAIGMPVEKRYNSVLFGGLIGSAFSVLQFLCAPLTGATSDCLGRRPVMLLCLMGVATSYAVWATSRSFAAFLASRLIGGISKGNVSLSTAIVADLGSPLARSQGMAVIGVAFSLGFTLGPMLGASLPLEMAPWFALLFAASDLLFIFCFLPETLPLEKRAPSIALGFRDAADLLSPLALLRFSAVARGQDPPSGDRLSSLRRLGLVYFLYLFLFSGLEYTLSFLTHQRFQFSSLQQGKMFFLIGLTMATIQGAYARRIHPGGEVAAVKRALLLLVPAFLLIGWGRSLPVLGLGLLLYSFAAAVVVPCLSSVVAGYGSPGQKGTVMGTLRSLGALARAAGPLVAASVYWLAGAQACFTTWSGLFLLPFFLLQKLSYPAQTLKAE

Columns and labels:
Assay in all cases: log2 fold change, soluble protein after heating vs DMSO (PISA); higher = thermal stabilisation; K562 cells, 10 uM, 30 min; active = over 0.2 and 3.5 SD of the protein, either way, in both replicates (recomputed)
bafetinib = compound: Cc1ccc(NC(=O)c2ccc(CN3CC[C@H](N(C)C)C3)c(C(F)(F)F)c2)cc1Nc1nccc(-c2cncnc2)n1 [bafetinib]
Outline: (§1)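 Aliquots of K562 cells (2×10^6 cells/mL) treated with 10 μM compound for 30 min were heated for 3 min over 48°C-58°C. After pooling and extraction in PBS with 0.5% NP-40 at 4°C, soluble protein from a 21,000xg, 90 min spin was quantified by TMTpro 16plex LC-MS/MS with channel sums equalised. Thermal stability is expressed against control samples, from duplicates, as a log2 fold change.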

[1] = compound: Cc1cccc(CC(=O)N2CCc3c2ccc(-c2cn(C)c4ncnc(N)c24)c3F)n1
Outline: as §1

nilotinib = compound: Cc1cn(-c2cc(NC(=O)c3ccc(C)c(Nc4nccc(-c5cccnc5)n4)c3)cc(C(F)(F)F)c2)cn1 [nilotinib]
Outline: as §1

[2] = compound: Cc1nc(Nc2n[nH]c3c2CN(C(=O)N[C@H](CN(C)C)c2ccccc2)C3(C)C)c2sccc2n1
Outline: as §1

dasatinib = compound: Cc1nc(Nc2ncc(C(=O)Nc3c(C)cccc3Cl)s2)cc(N2CCN(CCO)CC2)n1 [dasatinib]
Outline: as §1

[3] = compound: Cc1ncc(-c2ccnc(Nc3ccc(S(C)(=O)=O)cc3)n2)n1C(C)C
Outline: as §1

[4] = compound: Cn1cc(-c2ccc3c(c2)CCN3C(=O)Cc2cccc(C(F)(F)F)c2)c2c(N)ncnc21
Outline: as §1

[5] = compound: Cn1cc(-c2ccc3nnc(C(F)(F)c4ccc5ncccc5c4)n3n2)cn1
Outline: as §1

tipifarnib = compound: Cn1cncc1[C@@](N)(c1ccc(Cl)cc1)c1ccc2c(c1)c(-c1cccc(Cl)c1)cc(=O)n2C [tipifarnib]
Outline: as §1

mubritinib = compound: FC(F)(F)c1ccc(/C=C/c2nc(COc3ccc(CCCCn4ccnn4)cc3)co2)cc1 [mubritinib]
Outline: as §1

[6] = compound: NC(=O)Nc1cc(-c2cccc(F)c2)sc1C(=O)N[C@H]1CCCNC1
Outline: as §1

[7] = compound: NC(=O)c1cnc(N[C@@H]2CCCC[C@@H]2N)nc1Nc1cccc(-n2nccn2)c1
Outline: as §1

[8] = compound: NC1(c2ccc(-c3nc4ccn5c(=O)[nH]nc5c4cc3-c3ccccc3)cc2)CCC1
Outline: as §1

[9] = compound: NCC(=O)Nc1ccc(-n2nc(C(F)(F)F)cc2-c2ccc3c(ccc4ccccc43)c2)cc1
Outline: as §1

entinostat = compound: Nc1ccccc1NC(=O)c1ccc(CNC(=O)OCc2cccnc2)cc1 [entinostat]
Outline: as §1

vorinostat = compound: O=C(CCCCCCC(=O)Nc1ccccc1)NO [vorinostat]
Outline: as §1

citarinostat = compound: O=C(CCCCCCNC(=O)c1cnc(N(c2ccccc2)c2ccccc2Cl)nc1)NO [citarinostat]
Outline: as §1

silmitasertib = compound: O=C(O)c1ccc2c(c1)nc(Nc1cccc(Cl)c1)c1ccncc12 [silmitasertib]
Outline: as §1

[10] = compound: O=C1NC(=O)C(c2cnc3ccccn23)=C1c1cn2c3c(cc(F)cc13)CN(C(=O)N1CCCCC1)CC2
Outline: as §1

[11] = compound: c1cc(OCCN2CCCCC2)cc(-c2n[nH]c3ccc(-c4nnc[nH]4)cc23)c1
Outline: as §1

Measured: log2 fold change

MFSD5 isoform 2 (UniProt Q6N075)
inactive: bafetinib -0.126 | [1] 0.009 | nilotinib 0.054 | [2] 0.055 | dasatinib -0.029 | [3] -0.057 | [4] -0.048 | [5] 0.009 | tipifarnib 0.141 | mubritinib 0.128 | [6] -0.037 | [7] 0.035 | [8] -0.137 | [9] -0.089 | entinostat -0.099 | vorinostat -0.093 | citarinostat -0.009 | silmitasertib -0.033 | [10] -0.193 | [11] -0.049

MBOAT7 (UniProt Q96N66)
inactive: bafetinib -0.01 | [1] 0.036 | nilotinib -0.05 | [2] 0.019 | dasatinib 0.009 | [3] -0.018 | [4] 0.016 | [5] 0.058 | tipifarnib -0.055 | mubritinib 0.014 | [6] 0.005 | [7] -0.034 | [8] -0.029 | [9] -0.022 | entinostat 0.011 | vorinostat 0.031 | citarinostat 0.026 | silmitasertib 0.012 | [10] -0.032 | [11] -0.017

MGAT2 (UniProt Q10469)
inactive: bafetinib -0.078 | [1] -0.029 | nilotinib -0.004 | [2] 0.017 | dasatinib -0.02 | [3] 0.016 | [4] 0.047 | [5] -0.048 | tipifarnib 0.019 | mubritinib 0.048 | [6] 0.035 | [7] -0.038 | [8] -0.007 | [9] -0.026 | entinostat -0.009 | vorinostat 0.004 | citarinostat -0.023 | silmitasertib -0.024 | [10] 0.012 | [11] -0.034

MED24 (UniProt O75448)
inactive: bafetinib 0.02 | [1] 0.167 | nilotinib 0.046 | [2] 0.003 | dasatinib -0.007 | [3] -0.127 | [4] -0.054 | [5] 0.165 | tipifarnib 0.206 | mubritinib 0.031 | [6] 0.089 | [7] -0.088 | [8] -0.016 | [9] -0.037 | entinostat 0.012 | vorinostat 0.056 | citarinostat -0.007 | silmitasertib 0.069 | [10] 0.025 | [11] -0.076

Reprinted from the results shown (2 entries):
MGAT2 (UniProt Q10469)
inactive: bafetinib -0.078 | [1] -0.029 | nilotinib -0.004 | [2] 0.017 | dasatinib -0.02 | [3] 0.016 | [4] 0.047 | [5] -0.048 | tipifarnib 0.019 | mubritinib 0.048 | [6] 0.035 | [7] -0.038 | [8] -0.007 | [9] -0.026 | entinostat -0.009 | vorinostat 0.004 | citarinostat -0.023 | silmitasertib -0.024 | [10] 0.012 | [11] -0.034

MED24 (UniProt O75448)
inactive: bafetinib 0.02 | [1] 0.167 | nilotinib 0.046 | [2] 0.003 | dasatinib -0.007 | [3] -0.127 | [4] -0.054 | [5] 0.165 | tipifarnib 0.206 | mubritinib 0.031 | [6] 0.089 | [7] -0.088 | [8] -0.016 | [9] -0.037 | entinostat 0.012 | vorinostat 0.056 | citarinostat -0.007 | silmitasertib 0.069 | [10] 0.025 | [11] -0.076

Next results.

METTL3 (UniProt Q86U44)
inactive: bafetinib -0.02 | [1] -0.014 | nilotinib -0.015 | [2] 0.002 | dasatinib -0.012 | [3] -0.018 | [4] 0.049 | [5] -0.021 | tipifarnib 0.008 | mubritinib 0.072 | [6] 0.011 | [7] -0.034 | [8] -0.055 | [9] -0.033 | entinostat -0.017 | vorinostat 0.009 | citarinostat 0.013 | silmitasertib -0.03 | [10] -0.047 | [11] -0.013

MECP2 isoform 2 (UniProt P51608)
inactive: bafetinib 0.122 | [1] -0.012 | nilotinib -0.069 | [2] -0.043 | dasatinib 0.242 | [3] -0.058 | [4] -0.234 | [5] -0.063 | tipifarnib 0.073 | mubritinib -0.041 | [6] 0.046 | [7] 0.074 | [8] 0.151 | [9] 0.117 | entinostat -0.069 | vorinostat -0.059 | citarinostat -0.103 | silmitasertib 0.236 | [10] 0.188 | [11] -0.153

MAT2A (UniProt P31153)
inactive: bafetinib -0.074 | [1] -0.057 | nilotinib 0.003 | [2] -0.014 | dasatinib 0.091 | [3] -0.014 | [4] -0.009 | [5] 0.047 | tipifarnib 0.06 | mubritinib 0.035 | [6] -0.023 | [7] 0.02 | [8] 0.005 | [9] 0.003 | entinostat -0.04 | vorinostat -0.031 | citarinostat -0.013 | silmitasertib -0.023 | [10] -0.065 | [11] 0.02

MED18 (UniProt Q9BUE0)
inactive: bafetinib -0.085 | [1] 0.088 | nilotinib -0.006 | [2] -0.092 | dasatinib 0.007 | [3] -0.048 | [4] 0.032 | [5] -0.015 | tipifarnib -0.006 | mubritinib 0.041 | [6] -0.08 | [7] -0.137 | [8] -0.079 | [9] -0.084 | entinostat -0.015 | vorinostat -0.016 | citarinostat 0.03 | silmitasertib 0.059 | [10] -0.129 | [11] -0.05

MED23 (UniProt Q9ULK4)
inactive: bafetinib 0.046 | [1] 0.041 | nilotinib 0.083 | [2] -0.047 | dasatinib -0.006 | [3] -0.184 | [4] -0.021 | [5] -0.008 | tipifarnib -0.09 | mubritinib 0.084 | [6] 0.033 | [7] -0.006 | [8] -0.066 | [9] 0.024 | entinostat 0.089 | vorinostat 0.069 | citarinostat 0.041 | silmitasertib 0.021 | [10] 0.03 | [11] -0.14

MESD (UniProt Q14696)
inactive: bafetinib -0.062 | [1] -0.025 | nilotinib -0.041 | [2] 0.023 | dasatinib 0.084 | [3] -0.032 | [4] -0.076 | [5] 0.006 | tipifarnib 0.053 | mubritinib 0.013 | [6] -0.013 | [7] -0.032 | [8] -0.03 | [9] 0.005 | entinostat -0.022 | vorinostat -0.05 | citarinostat 0.038 | silmitasertib 0.026 | [10] -0.033 | [11] -0.049

MDN1 (UniProt Q9NU22)
inactive: bafetinib -0.094 | [1] 0 | nilotinib -0.15 | [2] -0.195 | dasatinib -0.245 | [3] -0.089 | [4] 0.02 | [5] 0.011 | tipifarnib -0.052 | mubritinib -0.089 | [6] -0.002 | [7] -0.087 | [8] -0.138 | [9] -0.058 | entinostat 0.112 | vorinostat 0.098 | citarinostat 0.075 | silmitasertib -0.037 | [10] -0.032 | [11] 0.082

MCM2 (UniProt P49736)
inactive: bafetinib -0.02 | [1] 0.021 | nilotinib -0.057 | [2] -0.013 | dasatinib -0.06 | [3] -0.041 | [4] 0.037 | [5] 0.054 | tipifarnib -0.026 | mubritinib 0.049 | [6] 0.004 | [7] -0.05 | [8] -0.095 | [9] -0.012 | entinostat 0.025 | vorinostat 0.044 | citarinostat 0.032 | silmitasertib -0.005 | [10] -0.02 | [11] -0.019

MCM3 isoform 2 (UniProt P25205)
inactive: bafetinib -0.014 | [1] 0.029 | nilotinib -0.029 | [2] -0.011 | dasatinib -0.035 | [3] -0.036 | [4] 0.017 | [5] 0.03 | tipifarnib -0.019 | mubritinib -0.002 | [6] -0.021 | [7] 0.009 | [8] -0.049 | [9] 0.01 | entinostat 0.001 | vorinostat 0.026 | citarinostat 0 | silmitasertib -0.03 | [10] -0.009 | [11] -0.028

MFN1 (UniProt Q8IWA4)
inactive: bafetinib -0.114 | [1] -0.034 | nilotinib -0.005 | [2] -0.05 | dasatinib -0.054 | [3] 0.02 | [4] 0.032 | [5] -0.019 | tipifarnib 0.123 | mubritinib -0.01 | [6] -0.072 | [7] -0.171 | [8] -0.01 | [9] -0.224 | entinostat 0.034 | vorinostat 0.021 | citarinostat 0.034 | silmitasertib 0.102 | [10] -0.009 | [11] 0.02

METTL5 (UniProt Q9NRN9)
inactive: bafetinib -0.034 | [1] -0.017 | nilotinib -0.008 | [2] 0.015 | dasatinib -0.012 | [3] -0.005 | [4] -0.026 | [5] 0.048 | tipifarnib 0.006 | mubritinib 0.063 | [6] -0.014 | [7] 0.04 | [8] 0.016 | [9] 0.02 | entinostat -0.035 | vorinostat 0.017 | citarinostat 0.015 | silmitasertib -0.032 | [10] -0.035 | [11] -0.004

MFSD10 (UniProt Q14728)
inactive: bafetinib 0.041 | [1] -0.071 | nilotinib 0.046 | [2] 0.06 | dasatinib 0.015 | [3] -0.002 | [4] 0.013 | [5] 0 | tipifarnib 0.053 | mubritinib 0.104 | [6] 0.008 | [7] 0.03 | [8] 0.021 | [9] -0.034 | entinostat -0.124 | vorinostat -0.144 | citarinostat 0.036 | silmitasertib 0.024 | [10] 0.028 | [11] 0.025
